From the supplement of paper PMC4604168 (melanoma cell lines) come the findings set out here.

Some test systems named below: MZ2-MEL; MeWo; RPMI7951; RVH-421; SkMel28; SkMel2; SkMel30; UACC62; WM115; WM1716; WM1745; WM3526; WM3619; WM451Lu.
Common to all, as to test: cleaved PARP positive nuclei fraction relative to DMSO control; melanoma cells; higher = more apoptosis
Holding throughout (settings): library dose: low library concentration; 72 h

Each structure is given as a SMILES string. The list shows a part of the results. Many values rest on one well or one pass, so single values are uncertain.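 Cells were imaged in 1,536-well plates, and nuclei stained with an antibody against cleaved PARP were counted against all DNA-stained nuclei to give the apoptosis fraction. Screening doses were chosen to leave most cells alive, and resting and induced cleaved-PARP levels differ strongly between cell lines.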

For `CN(c1ncccc1CNc1nc(Nc2ccc3c(c2)CC(=O)N3)ncc1C(F)(F)F)S(C)(=O)=O` + N.N.[Cl][Pt][Cl] [cisplatin] (first compound 0.08 µM, partner dose 1.6 µM), the “cleaved PARP positive nuclei fraction” value in the experiment on MZ2-MEL came to 35.9%; in the experiment with MeWo it was 93%; in the experiment with RPMI7951, 117%; with RVH-421 it was 55.6%; in the experiment with SkMel28, 97.4%; in the experiment with SkMel2, 109%. Further, the “cleaved PARP positive nuclei fraction” value in the experiment with SkMel30 was 96.3%; in the experiment with UACC62 it was 95.7%; in the experiment with WM115, 296%; in the experiment on WM1716, 71.8%; with WM1745, 107%; in the experiment with WM3526, 83.4%. Besides, the “cleaved PARP positive nuclei fraction” value in the experiment with WM3619 is 92.8%; in the experiment on WM451Lu it was 296%.

As for `N.N.[Cl][Pt][Cl]` [cisplatin] + C[C@@H](Oc1cc(-c2cnn(C3CCNCC3)c2)cnc1N)c1c(Cl)ccc(F)c1Cl [Crizotinib] (first compound 1.6 µM, partner dose 0.2 µM), the “cleaved PARP positive nuclei fraction” value with MZ2-MEL was determined as 165%; in the experiment on MeWo, 59.9%; in the experiment with RPMI7951, 47.2%; with RVH-421, 58.1%; in the experiment on SkMel28 it was 71%; with SkMel2, 136%. The “cleaved PARP positive nuclei fraction” value in the experiment on SkMel30 was 124%; with UACC62 it was 75.9%; in the experiment on WM115, 62.7%; in the experiment with WM1716 it was 61%; with WM1745, 91.9%; in the experiment with WM3526, 79.3%. For the same compound, the “cleaved PARP positive nuclei fraction” value in the experiment on WM3619 is 69.5%; in the experiment on WM451Lu, 97.7%.

Take `N#CC[C@H](C1CCCC1)n1cc(-c2ncnc3[nH]ccc23)cn1` [ruxolitinib] + Cn1cc(C2=C(c3cn(C4CCN(Cc5ccccn5)CC4)c4ccccc34)C(=O)NC2=O)c2ccccc21 [Enzastaurin] (first compound 1 µM, partner dose 0.8 µM): the “cleaved PARP positive nuclei fraction” value with MZ2-MEL was found to be 90.5%; with MeWo it was 71.4%; in the experiment with RPMI7951, 150%; with RVH-421, 80.3%; with SkMel28, 144%; in the experiment on SkMel2, 62.8%. For the same compound, the “cleaved PARP positive nuclei fraction” value in the experiment with SkMel30 came to 43.9%; in the experiment with UACC62, 44.2%; in the experiment with WM115, 29.7%; in the experiment on WM1716 it was 81.1%; with WM1745, 104%; in the experiment on WM3526, 29.8%. In addition, the “cleaved PARP positive nuclei fraction” value stood at 160% with WM3619 and 43% with WM451Lu.

`C[As](C)SC[C@H](NC(=O)CC[C@H](N)C(=O)O)C(=O)NCC(=O)O` [Darinaparsin] + Nc1cccc2c1CN(C1CCC(=O)NC1=O)C2=O [lenalidomide] (first compound 0.4 µM, partner dose 1 µM): the “cleaved PARP positive nuclei fraction” value came to 138% with MZ2-MEL; 125% with MeWo; 73.4% with RPMI7951; 79.7% in the experiment on RVH-421; 79.2% with SkMel28; 121% in the experiment with SkMel2. Besides, the “cleaved PARP positive nuclei fraction” value came to 213% in the experiment with SkMel30; 188% in the experiment with UACC62; 188% in the experiment with WM115; 126% in the experiment on WM1716; 97.5% with WM1745; 40% with WM3526. Also, the “cleaved PARP positive nuclei fraction” value in the experiment on WM3619 was 85.5%; in the experiment with WM451Lu, 77.8%.

As for `O=C(Nc1cc(C(F)(F)F)cc(C(F)(F)F)c1)c1cc(Cl)ccc1O` + C[As](C)SC[C@H](NC(=O)CC[C@H](N)C(=O)O)C(=O)NCC(=O)O [Darinaparsin] (first compound 0.016 µM, partner dose 0.4 µM), the “cleaved PARP positive nuclei fraction” value is 124% with MZ2-MEL; 102% with MeWo; 173% with RPMI7951; 139% with RVH-421; 37.6% in the experiment with SkMel28; 49.2% in the experiment with SkMel2. The “cleaved PARP positive nuclei fraction” value in the experiment with SkMel30 came to 31.4%; in the experiment with UACC62, 133%; in the experiment with WM115 it was 157%; in the experiment with WM1716, 25.9%; in the experiment on WM1745, 95.5%; in the experiment with WM3526, 46.1%. In addition, the “cleaved PARP positive nuclei fraction” value in the experiment with WM3619 was 79.9%; in the experiment with WM451Lu, 56%.

In the case of `NC(=O)c1ccc(N(C(N)=O)c2c(F)cccc2F)nc1-c1ccc(F)cc1F` + C[As](C)SC[C@H](NC(=O)CC[C@H](N)C(=O)O)C(=O)NCC(=O)O [Darinaparsin] (first compound 0.4 µM, partner dose 0.4 µM), the “cleaved PARP positive nuclei fraction” value came to 46.2% with MZ2-MEL; 167% with MeWo; 94.9% in the experiment with RPMI7951; 138% in the experiment on RVH-421; 113% in the experiment on SkMel28; 81.5% with SkMel2. The “cleaved PARP positive nuclei fraction” value in the experiment with SkMel30 turned out to be 85.2%; in the experiment on UACC62, 83.7%; with WM115 it was 143%; in the experiment on WM1716 it was 24.3%; with WM1745 it was 86.9%; with WM3526 it was 46.1%. For the same compound, the figures for the “cleaved PARP positive nuclei fraction” value in the experiment with WM3619 and with WM451Lu were 88.6% and 37.8%, respectively.

Consider `C[C@@H](N)c1ccc(C(=O)Nc2ccnc3[nH]ccc23)cc1` + Cn1cc(C2=C(c3cn(C4CCN(Cc5ccccn5)CC4)c4ccccc34)C(=O)NC2=O)c2ccccc21 [Enzastaurin] (first compound 0.4 µM, partner dose 0.8 µM), for which the “cleaved PARP positive nuclei fraction” value in the experiment with MZ2-MEL was determined as 225%; in the experiment on MeWo, 81.2%; in the experiment with RPMI7951 it was 110%; with RVH-421, 166%; in the experiment with SkMel28 it was 45.9%; with SkMel2 it was 88.5%. Besides, the “cleaved PARP positive nuclei fraction” value is 18.1% in the experiment on SkMel30; 270% with UACC62; 45.7% in the experiment on WM115; 42.6% in the experiment with WM1716; 105% in the experiment with WM1745; 47.6% in the experiment on WM3526. The “cleaved PARP positive nuclei fraction” value came to 90.7% with WM3619 and 45.8% with WM451Lu.

Regarding `Cn1cc(C2=C(c3cn(C4CCN(Cc5ccccn5)CC4)c4ccccc34)C(=O)NC2=O)c2ccccc21` [Enzastaurin] + CCN(CC)CCNC(=O)c1c(C)[nH]c(/C=C2\C(=O)Nc3ccc(F)cc32)c1C [sunitinib] (first compound 0.8 µM, partner dose 0.4 µM), the “cleaved PARP positive nuclei fraction” value in the experiment on MZ2-MEL came out at 157%; with MeWo it was 65%; in the experiment with RPMI7951, 208%; in the experiment with RVH-421, 41%; in the experiment with SkMel28 it was 195%; in the experiment with SkMel2, 147%. For the same compound, the “cleaved PARP positive nuclei fraction” value in the experiment with SkMel30 is 43.9%; in the experiment on UACC62, 150%; with WM115 it was 27.1%; in the experiment with WM1716, 75%; with WM1745 it was 105%; with WM3526, 100%. Moreover, the entries for the “cleaved PARP positive nuclei fraction” value in the experiment with WM3619 and with WM451Lu were 95.3% and 45.5%, respectively.

As to `N.N.[Cl][Pt][Cl]` [cisplatin] + C#Cc1cccc(Nc2ncnc3cc(OCCOC)c(OCCOC)cc23)c1 [erlotinib] (first compound 1.6 µM, partner dose 0.8 µM), the “cleaved PARP positive nuclei fraction” value with MZ2-MEL worked out at 129%; in the experiment on MeWo, 112%; in the experiment with RPMI7951, 38.1%; with RVH-421, 62%; in the experiment with SkMel28, 76.9%; with SkMel2, 70.8%. For the same compound, the “cleaved PARP positive nuclei fraction” value was found to be 23.1% with SkMel30; 156% with UACC62; 115% with WM115; 176% in the experiment with WM1716; 95.4% in the experiment on WM1745; 30.5% with WM3526. For the same compound, the “cleaved PARP positive nuclei fraction” value worked out at 91.3% in the experiment on WM3619 and 72.9% with WM451Lu.

For the compound `N.N.[Cl][Pt][Cl]` [cisplatin] + CCCS(=O)(=O)Nc1ccc(F)c(C(=O)c2c[nH]c3ncc(Cl)cc23)c1F [PLX4720] (first compound 1.6 µM, partner dose 0.08 µM), the “cleaved PARP positive nuclei fraction” value with MZ2-MEL is 135%; in the experiment with MeWo, 52.8%; with RPMI7951 it was 158%; in the experiment with RVH-421 it was 102%; in the experiment on SkMel28 it was 66.3%; in the experiment on SkMel2, 125%. The “cleaved PARP positive nuclei fraction” value in the experiment on SkMel30 came to 17.8%; with UACC62, 122%; in the experiment on WM115, 55.3%; with WM1716 it was 31.4%; in the experiment with WM1745, 88.4%; with WM3526, 99%. The “cleaved PARP positive nuclei fraction” value worked out at 286% with WM3619 and 161% with WM451Lu.
